Some of the results follow.
What follows are sequences tested against T1, OsSMF1 (Oryza sativa, UniProt Q6ZLB0 1-436) (assay: protein-binding microarray (RPBM); PBS, 2% BSA, 51.3 ng/ul salmon testes DNA, 50 uM zinc acetate, 200 nM TF, 25 C, 1 h; high values mean tight binding). Details: protein: recombinant; tags: N-terminal polyhistidine and DsRed monomer fusion (pET32a); chain copies: 2; label: CyDye5-dUTP incorporated in the synthesized complementary strand; 3' TTTTT single-stranded linker to array surface; dsDNA, one strand shown.
T1 sequence: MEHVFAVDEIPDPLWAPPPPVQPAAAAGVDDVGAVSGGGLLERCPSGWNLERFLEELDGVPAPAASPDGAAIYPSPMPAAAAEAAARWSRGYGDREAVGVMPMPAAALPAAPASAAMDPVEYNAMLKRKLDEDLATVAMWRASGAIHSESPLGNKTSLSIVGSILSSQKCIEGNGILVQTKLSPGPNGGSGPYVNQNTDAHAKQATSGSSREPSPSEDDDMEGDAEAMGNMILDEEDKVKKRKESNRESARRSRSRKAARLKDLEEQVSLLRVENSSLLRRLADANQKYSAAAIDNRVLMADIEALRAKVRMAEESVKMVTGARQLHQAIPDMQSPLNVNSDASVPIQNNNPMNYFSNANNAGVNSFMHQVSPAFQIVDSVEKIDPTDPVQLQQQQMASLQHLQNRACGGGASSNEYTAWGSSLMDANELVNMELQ
Method in brief: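 Transcription factors, each fused N-terminally to a polyhistidine tag and DsRed, were expressed in E. coli BL21-CodonPlus and purified on Ni–NTA. A custom Agilent array was made double-stranded by primer extension with Cy5-dUTP and blocked with 2% BSA. It was incubated with 200 nM protein in PBS, 2% BSA, salmon testes DNA and 50 µM zinc acetate at 25 °C for 1 h, then washed. The binding signal is per-feature fluorescence intensity (arbitrary units) read on an Axon 4000B scanner.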

Sequence | binding signal
TCGGGATCCGGCCTTACCAGGGGCACCGCCGCCGACGCCGCGGAGTCACCTAGTGCAG | 18700 fluorescence intensity (a.u.)
CTCCTCAGTTCTCAACATGTGGGCCGAATTCTTTACTGTGCGGAGTCACCTAGTGCAG | 3990 fluorescence intensity (a.u.)
GTAAAGAATGTCTCATCATCATCGGTCCCTTGTCCGTTGTCGGAGTCACCTAGTGCAG | 4130 fluorescence intensity (a.u.)
ACATCTCGTCCACGCTTAGTCATCAATATAGCAATATAAACGGAGTCACCTAGTGCAG | 3460 fluorescence intensity (a.u.)
TTATTACTATCGCCACGTCTCTCCCGGCTCCCTCTATTTTCGGAGTCACCTAGTGCAG | 6380 fluorescence intensity (a.u.)
AAAATAGTGGAAAGGTATATACCTCGATCTTCATGTCGAGCGGAGTCACCTAGTGCAG | 3340 fluorescence intensity (a.u.)
ATAGTACAATCGTAGTGTAATTACACTGTAACTTGCATGTCGGAGTCACCTAGTGCAG | 3300 fluorescence intensity (a.u.)
AATTTGCGTGCGCTGCTGAGGTCAGAGGGAGACAGATTGGCGGAGTCACCTAGTGCAG | 3420 fluorescence intensity (a.u.)
CTAACACCGACCCCTTTACCATGTTTGCATCACCACCGGACGGAGTCACCTAGTGCAG | 3730 fluorescence intensity (a.u.)
TAGTACCAAAGTATTTGTGTGTCACTATGATGTCCTGCCTCGGAGTCACCTAGTGCAG | 6010 fluorescence intensity (a.u.)
ACCGCTCCTCCTCCTCCTCGTCGGTAGGGGCGTGTGTGCGCGGAGTCACCTAGTGCAG | 3280 fluorescence intensity (a.u.)
TGCAGAACGGAGTAATTTCTTACAGATCATCCTGTTTCTGCGGAGTCACCTAGTGCAG | 3770 fluorescence intensity (a.u.)
TGAAGATTGATGAGATGGACGGTACCATTGCCGATGCTGTCGGAGTCACCTAGTGCAG | 3160 fluorescence intensity (a.u.)
TTTTGCAACACCATAATATTCTTCAACTCTCACTCCATCACGGAGTCACCTAGTGCAG | 3410 fluorescence intensity (a.u.)
CATCGTCGACGATGACACCACGCGTGATGCGAGTCCCTCACGGAGTCACCTAGTGCAG | 3470 fluorescence intensity (a.u.)
CAAAGTTAGCAGGCAACGCGTCACTACCGCGTGATCATTTCGGAGTCACCTAGTGCAG | 4470 fluorescence intensity (a.u.)
AGTCATTGTTTTAGGATGTGTCACATCCACCCAAAATCACCGGAGTCACCTAGTGCAG | 3930 fluorescence intensity (a.u.)
CGACGAGGTTAACCTACCCAGCGTGCACACGTGTCACACCCGGAGTCACCTAGTGCAG | 7880 fluorescence intensity (a.u.)
AAGTGGAACCCACGTATCATCCTCCCTCTTCTCTCTTCCTCGGAGTCACCTAGTGCAG | 4160 fluorescence intensity (a.u.)
AGTTCCACTTGATATCCTAACATCCTTGTTGGCTTGGTGTCGGAGTCACCTAGTGCAG | 3200 fluorescence intensity (a.u.)
GAGGGGAAAGATAGATGATGTGGCATTCTGACATGTGGAGCGGAGTCACCTAGTGCAG | 15300 fluorescence intensity (a.u.)

Sequence | binding signal
CGGCCAAGTCGTCAAGAAGCTAGCTAGTCATTGCCAGTGGCGGAGTCACCTAGTGCAG | 3260 fluorescence intensity (a.u.)
GGTCCAGTGGGCCCCACGCGTCAGCCGCACGCGGACCCGCCGGAGTCACCTAGTGCAG | 7570 fluorescence intensity (a.u.)
GTTGGCAATGATGTACAGTTGGAGCGGTGATGGTGGCGTGCGGAGTCACCTAGTGCAG | 4310 fluorescence intensity (a.u.)
CTTGTCTCCCTCCACGTTCGCACGTCGCCGCCTGCCTGCTCGGAGTCACCTAGTGCAG | 8610 fluorescence intensity (a.u.)
ACTGGAAAATTTGGTCCACCTGTCTCGTCAACAGATTTCACGGAGTCACCTAGTGCAG | 3380 fluorescence intensity (a.u.)
CACGCATGCTTCGCGTCACTGCACGCATGTGACATTGTCACGGAGTCACCTAGTGCAG | 5760 fluorescence intensity (a.u.)
ATCAATCTAATCATGACTTTGAGTCATTTCCGATCTAACTCGGAGTCACCTAGTGCAG | 4000 fluorescence intensity (a.u.)
CAATCAGAGCCCAAAATAGGAGTCCATGTCACGTACATAACGGAGTCACCTAGTGCAG | 4490 fluorescence intensity (a.u.)
CTCAAAACTTCCAGTCTGACTCACACTCACAAACACAAAGCGGAGTCACCTAGTGCAG | 3760 fluorescence intensity (a.u.)
ATGGACTGTTTTGTCAACTAAGTAATGCATGACACGTGGACGGAGTCACCTAGTGCAG | 14500 fluorescence intensity (a.u.)
ACTAAGATCGTAATAAAACATCGTATGTGCAGTATTTTCCCGGAGTCACCTAGTGCAG | 3530 fluorescence intensity (a.u.)
ACCACTTCTCTCTTGGAATTCATGAAACCGACGCCGAAAACGGAGTCACCTAGTGCAG | 3200 fluorescence intensity (a.u.)
TTTAATGGAGGGAGTACGTGTCATCGAGGGCTCGTTGATGCGGAGTCACCTAGTGCAG | 8160 fluorescence intensity (a.u.)
GCCGCTGCCCGACGCCAAATCTGGTGAGCTCGGTGGATGCCGGAGTCACCTAGTGCAG | 3280 fluorescence intensity (a.u.)
CTCGTCGGCCTCAACCACCTTCTTGGGATCTGCGCAACACCGGAGTCACCTAGTGCAG | 3170 fluorescence intensity (a.u.)
AAACCGAACCAAACGACGGTGACTCACCCATGGTCTCGATCGGAGTCACCTAGTGCAG | 14100 fluorescence intensity (a.u.)
TAAGCAGATGCTTGAGTGCACTGCTGCGGATTTGGCACTCCGGAGTCACCTAGTGCAG | 3250 fluorescence intensity (a.u.)
GACTACGGCGCGCGGGCGGGCGGGAGGGCGGACGCGGCGGCGGAGTCACCTAGTGCAG | 3700 fluorescence intensity (a.u.)
AATTTCTTTGATGGTAAGATGAGTCACAACGAAATAAATGCGGAGTCACCTAGTGCAG | 5460 fluorescence intensity (a.u.)
GATCAAAATTTAATCTGACGGTGCGTTTGGTTTCCTTGCACGGAGTCACCTAGTGCAG | 3950 fluorescence intensity (a.u.)
CGCCGCTCTCGTTCCCACTCCCGCGTGGCCCCACGCCGCGCGGAGTCACCTAGTGCAG | 4590 fluorescence intensity (a.u.)

Reformatted tab-delimited: part of the list above
Sequence	binding signal
TTATTACTATCGCCACGTCTCTCCCGGCTCCCTCTATTTTCGGAGTCACCTAGTGCAG	6380 fluorescence intensity (a.u.)
TTTAATGGAGGGAGTACGTGTCATCGAGGGCTCGTTGATGCGGAGTCACCTAGTGCAG	8160 fluorescence intensity (a.u.)
TAAGCAGATGCTTGAGTGCACTGCTGCGGATTTGGCACTCCGGAGTCACCTAGTGCAG	3250 fluorescence intensity (a.u.)

From publication PMC7819943, “Rice protein-binding microarrays: a tool to detect cis-acting elements near promoter regions in rice”
